Experiment [1] has as its target recombinant human EFNA1 His fusion protein (human). Nature of the experiment: Western blot with non-reduced (NR) and reduced (R) samples, Example 8. (In general: In western blotting, separated proteins are transferred to a membrane and probed.)
For experiment [2], the target named is recombinant human EFNA3 His fusion protein (human). The experiment is described as above.

Drawing on patent US20140302034A1 (STEM CENTRX, published 2014), this text covers binding for 3 molecules.

No constants are given. Whether binding was seen depends on the method and setting. A result given as binding can be weak or reduced; the word gives no strength.

B1: SC9.20 (antibody, V domains shown)
VH: DVQLQESGPGLVKPSQSLSLTCSVTGYSITSGYYWNWIRQFPGNRLEWMAYISYDGSNDYNPSLKNRISITRDTSKNQFFLKLNSVTTEDTATYYCARGYPILFAYWGQGTLVTVSA
VL: DIKMTQSPSSMNASLGERVSITCKTSQDINSYLSWLQQKPGKSPKTLIYRANRLVDGVPSRFSGSGSGQDYSLTISSLEYEDMGIYYCLQYDEFPLTFGIGTKLELK
Turning to B1, in experiment [1], the binding entry is recorded as “binds”.

B2: SC11.51 (antibody, V domains shown)
VH: EVQLQQSGPELVKPGASVKISCKASGYTFTDYYMNWVKQTHGKSLEWIGDITPNSGGPTYNQNFKGKATLTVDRSSTTAFMELRSLTSDDSAVYYCVRSAYYYGTNYDFDYWGQGTTLTVSS
VL: QIVLTQSPAIMSASPGEKVTMTCSASSSVTYMYWYQQKPGSSPKPWIYRTSNLASGVPTRFSGSGSGTSYSLTISSVEAEDTATYYCQQYSDYPLTFGAGTKLELK
notes: Murine monoclonal antibody from a hybridoma; also called EFNA3 modulator SC11.51
For the molecule B2, the binding result in experiment [2] is “binds”.

B3: SC11.34 (antibody, V domains shown)
VH: DVHLQETGPGLVKPSQSLSVTCTVTGYSITSDYAWNWIRQFPGNKLEWMGYISYSGGTRYNPSVKSRISITRDTSKNQFFLQLNSVTTEDTATYYCARGPYAGYPAWFDYWGPGTLVTVSA
VL: ENVLTQSPAIMSASLGEKVTMSCRANSSINYMYWYQQKSDASPKLWIYYTSNLAPGVPARFSGSGSGNSYSLTISSMEGEDAATYYCQQFTSSPWTFGGGTKLEIK
notes: Murine monoclonal antibody from a hybridoma; also called EFNA3 modulator SC11.34
Consider B3, for which the binding result in experiment [2] is reported as “binds”.
